Measured values: article PMC7048138

Molecular target: T1, mCherryFP-TgDCX (full-length wild-type TgDCX, mCherryFP at the N-terminus) (Toxoplasma gondii) (UniProt B6KAS6)
T1 sequence: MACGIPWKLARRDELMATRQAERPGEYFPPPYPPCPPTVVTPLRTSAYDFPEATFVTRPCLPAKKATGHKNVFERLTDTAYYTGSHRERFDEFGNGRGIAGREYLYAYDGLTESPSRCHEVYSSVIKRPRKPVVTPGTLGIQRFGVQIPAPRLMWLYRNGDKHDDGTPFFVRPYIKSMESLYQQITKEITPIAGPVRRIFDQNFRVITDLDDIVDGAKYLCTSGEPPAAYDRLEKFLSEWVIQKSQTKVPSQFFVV
Assay: fluorescence microscopy of FP-tagged protein on microtubules in cells

## mCerulean3FP-TgCPH1 (Toxoplasma gondii)
  binding: binds

These are yes or no findings as the source states them, for the method shown. Binding calls can cover weak binding; strength is not graded here.
